Measured values as given in PMC8274477.
No constants are given. Whether binding was seen depends on the method and setting. Some binding calls cover weakened binding; strength is not graded here.

How the values were obtained:
Assay in all cases: peptide or protein array; HuProt human proteome microarray; 5 ug/5 ml biotin-labelled LUBAC or OTULIN in solution, 1 h at room temperature; Cy5-streptavidin, scanned at 635 nm; BSA as negative control; hits: Z-score >= 3 and I_(Mean_Ratio) >= 1.4; both purified
TBXAS1 (human) = target: T1, TBXAS1 (human) (UniProt P24557)
T1 sequence: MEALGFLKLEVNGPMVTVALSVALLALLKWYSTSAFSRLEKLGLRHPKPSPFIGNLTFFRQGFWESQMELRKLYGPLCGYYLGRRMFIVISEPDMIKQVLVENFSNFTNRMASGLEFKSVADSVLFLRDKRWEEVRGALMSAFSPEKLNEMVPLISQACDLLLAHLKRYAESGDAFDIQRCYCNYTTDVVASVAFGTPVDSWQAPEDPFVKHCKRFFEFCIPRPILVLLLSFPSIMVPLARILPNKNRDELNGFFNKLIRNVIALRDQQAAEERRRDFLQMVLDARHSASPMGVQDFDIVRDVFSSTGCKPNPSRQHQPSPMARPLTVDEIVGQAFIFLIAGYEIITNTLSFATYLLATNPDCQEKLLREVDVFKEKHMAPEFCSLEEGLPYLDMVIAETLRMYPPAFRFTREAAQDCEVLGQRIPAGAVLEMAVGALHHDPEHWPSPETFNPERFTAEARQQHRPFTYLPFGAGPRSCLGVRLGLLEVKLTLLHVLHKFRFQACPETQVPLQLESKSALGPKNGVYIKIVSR

SGK494 (human) = target: T2, SGK494 (human) (UniProt Q96LW2)
T2 sequence: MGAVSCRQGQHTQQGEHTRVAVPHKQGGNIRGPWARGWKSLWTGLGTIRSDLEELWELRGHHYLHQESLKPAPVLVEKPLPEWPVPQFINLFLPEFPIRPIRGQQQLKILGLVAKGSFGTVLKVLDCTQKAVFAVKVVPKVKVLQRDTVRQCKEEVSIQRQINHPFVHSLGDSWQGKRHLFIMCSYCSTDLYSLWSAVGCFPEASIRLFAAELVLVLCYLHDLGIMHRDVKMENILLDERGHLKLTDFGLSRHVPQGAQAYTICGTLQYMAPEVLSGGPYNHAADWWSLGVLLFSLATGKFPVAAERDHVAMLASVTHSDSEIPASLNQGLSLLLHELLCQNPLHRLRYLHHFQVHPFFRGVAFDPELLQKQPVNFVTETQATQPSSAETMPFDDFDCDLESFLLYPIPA

PYCRL (human) = target: T3, PYCRL (human) (UniProt Q53H96)
T3 sequence: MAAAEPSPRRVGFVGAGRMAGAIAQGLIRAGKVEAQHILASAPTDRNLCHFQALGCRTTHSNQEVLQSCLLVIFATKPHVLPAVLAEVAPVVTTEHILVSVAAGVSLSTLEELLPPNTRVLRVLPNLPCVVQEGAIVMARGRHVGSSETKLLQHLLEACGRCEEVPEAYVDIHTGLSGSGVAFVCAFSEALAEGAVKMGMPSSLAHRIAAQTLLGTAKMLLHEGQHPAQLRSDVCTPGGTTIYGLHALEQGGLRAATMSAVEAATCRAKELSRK

ACOT7 (human) = target: T4, ACOT7 (human) (UniProt O00154)
T4 sequence: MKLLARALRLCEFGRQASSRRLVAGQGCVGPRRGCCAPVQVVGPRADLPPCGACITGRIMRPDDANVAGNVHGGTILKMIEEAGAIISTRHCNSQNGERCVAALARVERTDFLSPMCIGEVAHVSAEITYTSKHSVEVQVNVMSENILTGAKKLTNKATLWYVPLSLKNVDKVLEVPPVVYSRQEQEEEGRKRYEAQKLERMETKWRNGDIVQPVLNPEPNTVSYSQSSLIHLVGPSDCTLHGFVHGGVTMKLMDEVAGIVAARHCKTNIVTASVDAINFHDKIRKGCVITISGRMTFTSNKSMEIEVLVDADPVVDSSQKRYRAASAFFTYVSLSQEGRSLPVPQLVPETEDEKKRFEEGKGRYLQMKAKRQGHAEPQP

FAAH2 (human) = target: T5, FAAH2 (human) (UniProt Q6GMR7)
T5 sequence: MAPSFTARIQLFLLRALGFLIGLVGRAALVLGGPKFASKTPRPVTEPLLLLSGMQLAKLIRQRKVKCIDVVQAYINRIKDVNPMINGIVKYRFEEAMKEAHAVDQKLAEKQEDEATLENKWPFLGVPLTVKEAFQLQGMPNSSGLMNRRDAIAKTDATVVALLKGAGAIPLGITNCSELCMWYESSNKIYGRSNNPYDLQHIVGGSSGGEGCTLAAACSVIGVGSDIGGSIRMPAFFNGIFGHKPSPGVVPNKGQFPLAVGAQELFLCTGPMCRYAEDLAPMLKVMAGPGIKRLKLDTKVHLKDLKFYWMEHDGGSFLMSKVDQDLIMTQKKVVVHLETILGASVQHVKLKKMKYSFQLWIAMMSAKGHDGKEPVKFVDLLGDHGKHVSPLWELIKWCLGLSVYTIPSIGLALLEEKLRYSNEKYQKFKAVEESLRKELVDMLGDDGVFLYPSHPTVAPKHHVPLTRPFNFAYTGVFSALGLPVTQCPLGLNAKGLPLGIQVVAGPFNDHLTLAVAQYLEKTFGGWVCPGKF

Measured: binding

linear ubiquitin chain assembly complex (LUBAC), purified as HIS-tagged HOIP with the subunit HOIL-1, biotin-labelled (from UniProt Q96EP0 1-1072; Q9BYM8 1-510)
binds: all assays above
